Our source for the binding values is article PMC7347010.

The chains behind the UniProt entries cited, without tags or fusion partners.
UniProt O95983: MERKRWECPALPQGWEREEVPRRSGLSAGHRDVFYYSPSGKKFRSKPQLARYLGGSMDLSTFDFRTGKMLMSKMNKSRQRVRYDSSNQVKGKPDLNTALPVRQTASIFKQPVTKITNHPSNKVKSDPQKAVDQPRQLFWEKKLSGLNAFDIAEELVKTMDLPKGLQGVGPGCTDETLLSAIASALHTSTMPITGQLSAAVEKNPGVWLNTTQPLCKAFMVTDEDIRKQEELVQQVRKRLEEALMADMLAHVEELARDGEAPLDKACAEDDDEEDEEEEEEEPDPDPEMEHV
UniProt Q9Z2D8: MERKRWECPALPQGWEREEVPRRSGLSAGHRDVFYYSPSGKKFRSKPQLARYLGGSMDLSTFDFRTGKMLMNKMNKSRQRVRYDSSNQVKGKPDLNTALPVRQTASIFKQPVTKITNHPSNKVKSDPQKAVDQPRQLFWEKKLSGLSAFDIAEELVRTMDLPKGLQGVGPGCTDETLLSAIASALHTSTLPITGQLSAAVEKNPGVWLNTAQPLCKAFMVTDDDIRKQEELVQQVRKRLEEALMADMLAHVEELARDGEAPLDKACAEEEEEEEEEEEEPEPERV

Assay [1] has as its target MBD3-3xFLAG (endogenously tagged, human iPS cells) (human (endogenous in hiPSCs)) (UniProt O95983). Kind of assay: affinity purification with mass spectrometry; anti-FLAG sepharose on nuclear extract of MBD3-3xFLAG knock-in hiPSCs; three independent immunoprecipitations from one preparation of nuclear extract.
In assay [2] the target is Mbd3-3xFLAG (endogenously tagged, mouse epiStem cells) (mouse (endogenous in mEpiSCs)) (UniProt Q9Z2D8). Kind of assay: affinity purification with mass spectrometry; anti-FLAG sepharose on nuclear extract of Mbd3-3xFLAG knock-in mEpiSCs; three independent immunoprecipitations each from two independent cell lines.

Results are given in words; binding and its absence hold for the method and conditions named. In cells and extracts the contact can be indirect. These calls come from enrichment with a bait or labelling near it, and not all partners need be listed.

B1: BEND3 (human) (protein, UniProt Q5T5X7 1-828)
chain: MNSTEFTEDVEEVLKSITVKVETEAEDAALDCSVNSRTSEKHSVDSVLTALQDSSKRKQLVSDGLLDSVPGVKRRRLIPEALLAGMRNRENSSPCQGNGEQAGRGRSLGNVWPGEEEPCNDATTPSYKKPLYGISHKIMEKKNPPSGDLLNVYELFEKANASNSPSSLRLLNEPQKRDCGSTGAGTDNDPNIYFLIQKMFYMLNTLTSNMSQLHSKVDLLSLEVSRIKKQVSPTEMVAKFQPPPEYQLTAAELKQIVDQSLSGGDLACRLLVQLFPELFSDVDFSRGCSACGFAAKRKLESLHLQLIRNYVEVYYPSVKDTAVWQAECLPQLNDFFSRFWAQREMEDSQPSGQVASFFEAEQVDPGHFLDNKDQEEALSLDRSSTIASDHVVDTQDLTEFLDEASSPGEFAVFLLHRLFPELFDHRKLGEQYSCYGDGGKQELDPQRLQIIRNYTEIYFPDMQEEEAWLQQCAQRINDELEGLGLDAGSEGDPPRDDCYDSSSLPDDISVVKVEDSFEGERPGRRSKKIWLVPIDFDKLEIPQPDFEVPGADCLLSKEQLRSIYESSLSIGNFASRLLVHLFPELFTHENLRKQYNCSGSLGKKQLDPSRIKLIRHYVQLLYPRAKNDRVWTLEFVGKLDERCRRRDTEQRRSYQQQRKVHVPGPECRDLTSYAINPERFREEFEGPPLPPERSSKDFCKIPLDELVVPSPDFPVPSPYLLSDKEVREIVQQSLSVGNFAARLLVRLFPELFTAENLRLQYNHSGACNKKQLDPTRLRLIRHYVEAVYPVEKMEEVWHYECIPSIDERCRRPNRKKCDILKKAKKVEK
Consider B1, for which, in assay [1], the binding entry is “binds”.

B2: VRTN (human) (protein, UniProt Q9H8Y1 1-702)
chain: MTSRNQLVQKVLQELQEAVECEGLEGLIGASLEAKQVLSSFTLPTCREGGPGLQVLEVDSVALSLYPEDAPRNMLPLVCKGEGSLLFEAASMLLWGDAGLSLELRARTVVEMLLHRHYYLQGMIDSKVMLQAVRYSLCSEESPEMTSLPPATLEAIFDADVKASCFPSSFSNVWHLYALASVLQRNIYSIYPMRNLKIRPYFNRVIRPRRCDHVPSTLHIMWAGQPLTSHFFRHQYFAPVVGLEEVEAEGAPGVAPALPALAPLSSPAKTLELLNREPGLSYSHLCERYSVTKSTFYRWRRQSQEHRQKVAARFSAKHFLQDSFHRGGVVPLQQFLQRFPEISRSTYYAWKHELLGSGTCPALPPREVLGMEELEKLPEEQVAEEELECSALAVSSPGMVLMQRAKLYLEHCISLNTLVPYRCFKRRFPGISRSTYYNWRRKALRRNPSFKPAPALSAAGTPQLASVGEGAVIPWKSEAEEGAGNATGEDPPAPGELLPLRMPLSRWQRRLRRAARRQVLSGHLPFCRFRLRYPSLSPSAFWVWKSLARGWPRGLSKLQVPVPTLGKGGQEAEEKQEKEAGRDVTAVMAPPVGASSEDVEGGPSREGALQEGATAQGQPHSGPLLSQPVVAAAGGRDGRMLVMDMIATTKFKAQAKLFLQKRFQSKSFPSYKEFSALFPLTARSTYYMWKRALYDGLTLVDG
B2: the binding result in assay [1] is “binds”.

B3: ZNF423 (mouse) (protein, UniProt Q80TS5 1-1292)
chain: MSRRKQAKPRSVKVEEGEASDFSLAWDSSVAAAGGLEGEPECDRKTSRALEDRNSVTSQEERNEDDEDVEDESIYTCDHCQQDFESLADLTDHRAHRCPGDGDDDPQLSWVASSPSSKDVASPTQMIGDGCDLGLGEEEGGTGLPYPCQFCDKSFIRLSYLKRHEQIHSDKLPFKCTFCSRLFKHKRSRDRHIKLHTGDKKYHCHECEAAFSRSDHLKIHLKTHSSSKPFKCSVCKRGFSSTSSLQSHMQAHKKNKEHLAKSEKEAKKDDFMCDYCEDTFSQTEELEKHVLTLHPQLSEKADLQCIHCPEVFVDESTLLAHIHQAHANQKHKCPMCPEQFSSVEGVYCHLDSHRQPDSSNHSVSPDPVLGSVASMSSATPDSSASVERGSTPDSTLKPLRGQKKMRDDGQSWPKVVYSCPYCSKRDFTSLAVLEIHLKTIHADKPQQSHTCQICLDSMPTLYNLNEHVRKLHKSHAYPVMQFGNISAFHCNYCPEMFADINSLQEHIRVSHCGPNANPPDGNNAFFCNQCSMGFLTESSLTEHIQQAHCSVGSTKLESPVVQPTQSFMEVYSCPYCTNSPIFGSILKLTKHIKENHKNIPLAHSKKSKAEQSPVSSDVEVSSPKRQRLSGSANSISNGEYPCNQCDLKFSNFESFQTHLKLHLELLLRKQACPQCKEDFDSQESLLQHLTVHYMTTSTHYVCESCDKQFSSVDDLQKHLLDMHTFVLYHCTLCQEVFDSKVSIQVHLAVKHSNEKKMYRCTACNWDFRKEADLQVHVKHSHLGNPAKAHKCIFCGETFSTEVELQCHITTHSKKYNCRFCSKAFHAVILLEKHLREKHCVFDAAAENGTANGVPPTSTKKAEPADLQGMLLKNPEAPNSHEASEDDVDASEPMYGCDICGAAYTMEVLLQNHRLRDHNIRPGEDDGSRKKAEFIKGSHKCNVCSRTFFSENGLREHLQTHRGPAKHYMCPICGERFPSLLTLTEHKVTHSKSLDTGTCRICKMPLQSEEEFIEHCQMHPDLRNSLTGFRCVVCMQTVTSTLELKIHGTFHMQKLAGSSAASSPNGQGLQKLYKCALCLKEFRSKQDLVRLDVNGLPYGLCAGCMARSANGQVGGLAPPEPADRPCAGLRCPECNVKFESAEDLESHMQVDHRDLTPETSGPRKGAQTSPVPRKKTYQCIKCQMTFENEREIQIHVANHMIEEGINHECKLCNQMFDSPAKLLCHLIEHSFEGMGGTFKCPVCFTVFVQANKLQQHIFAVHGQEDKIYDCSQCPQKFFFQTELQNHTMSQHAQ
On to B3, for which, in assay [2], the binding result is recorded as “binds”.

B4: PGBD3 (protein, UniProt Q8N328 1-593)
chain: MPRTLSLHEITDLLETDDSIEASAIVIQPPENATAPVSDEESGDEEGGTINNLPGSLLHTAAYLIQDGSDAESDSDDPSYAPKDDSPDEVPSTFTVQQPPPSRRRKMTKILCKWKKADLTVQPVAGRVTAPPNDFFTVMRTPTEILELFLDDEVIELIVKYSNLYACSKGVHLGLTSSEFKCFLGIIFLSGYVSVPRRRMFWEQRTDVHNVLVSAAMRRDRFETIFSNLHVADNANLDPVDKFSKLRPLISKLNERCMKFVPNETYFSFDEFMVPYFGRHGCKQFIRGKPIRFGYKFWCGATCLGYICWFQPYQGKNPNTKHEEYGVGASLVLQFSEALTEAHPGQYHFVFNNFFTSIALLDKLSSMGHQATGTVRKDHIDRVPLESDVALKKKERGTFDYRIDGKGNIVCRWNDNSVVTVASSGAGIHPLCLVSRYSQKLKKKIQVQQPNMIKVYNQFMGGVDRADENIDKYRASIRGKKWYSSPLLFCFELVLQNAWQLHKTYDEKPVDFLEFRRRVVCHYLETHGHPPEPGQKGRPQKRNIDSRYDGINHVIVKQGKQTRCAECHKNTTFRCEKCDVALHVKCSVEYHTE
B4: the binding result in assay [1] is “binds”.

B5: VRTN (mouse) (protein, UniProt Q3SYK4 1-740)
chain: MTSRDQLVQQVLRDLQEAVESEGLEGLIGAALEAKQVLSSFTLPICQKGGPGAQVLEVDSVALSLYPEDAPRNMLPLVCKGEGSLLFEATSLLLWGHTGLSLELRARTVVEMLLHRHYYLQGMIDSKVMLQAVRYSLCSEESPEMTNLSFATLEAIFDADVKATCFPTSFSNVWHLYALASILECNIYSIYPMRNIKIRPYFNRVIMPRCSTHVTSMLHIMWAGQPLTSHLFRHQYFAPVVGLEEVEADCTASLNPVPPNLGPLLPPAKTLELLNREPGLSYSHLCDRISITKSTFYRWRRQTQEHRQKVATRFSAKHFLQDSFHRGGFVPLQQFLQRFPEISRSTYYAWKHELLGSGANSALGPATPSREALAVPEVERPPGKKAAEEVGCSSLAAAMLSPPSMILMQRAKSFLEYCISLNKLVPYRCFKCRFPGISRSTYYNWRRKALRRTPSFKLSQAAFETAESLQPTDVGKETPFSLKREAGEEETGKAGSGAPLTSRGLISPKMPLSRWQRRLRRAARKQVLNGHLPFCRFRLRYPSLLPSTFWVWKSLSRRSPGMQIPSLSQRRQKPQGRQKPEGRQKPEEQQKPEGRQKPEGRQKPVEPQAMEADQNVPAMVVPPAETLPVATSPEDVPGGPSREGNIIQEAAMTQSQPHSGSLPSQTLAEAPGGSDGQVLVMDMLTTTRFKAQAKLFLQKRFQSKTFPSYKEFQALFPLTARSTYYMWKRALYEGLTLIDG
Turning to B5, the binding entry in assay [2] is given as “binds”.
